Measured values: article PMC12784932, “Keratin 15 promotes a progenitor cell state in basal keratinocytes of skin epidermis” (The Journal of Cell Biology, 2026)
These are yes or no findings as the source states them, for the method shown. In cells and extracts the contact can be indirect. A result given as binding can be weak or reduced; the word gives no strength.

Chains of the proteins cited; added tags and fusions are not shown. Lines headed by an entry give the natural chain unless they say otherwise; changes in a name come on top.
UniProt P19012: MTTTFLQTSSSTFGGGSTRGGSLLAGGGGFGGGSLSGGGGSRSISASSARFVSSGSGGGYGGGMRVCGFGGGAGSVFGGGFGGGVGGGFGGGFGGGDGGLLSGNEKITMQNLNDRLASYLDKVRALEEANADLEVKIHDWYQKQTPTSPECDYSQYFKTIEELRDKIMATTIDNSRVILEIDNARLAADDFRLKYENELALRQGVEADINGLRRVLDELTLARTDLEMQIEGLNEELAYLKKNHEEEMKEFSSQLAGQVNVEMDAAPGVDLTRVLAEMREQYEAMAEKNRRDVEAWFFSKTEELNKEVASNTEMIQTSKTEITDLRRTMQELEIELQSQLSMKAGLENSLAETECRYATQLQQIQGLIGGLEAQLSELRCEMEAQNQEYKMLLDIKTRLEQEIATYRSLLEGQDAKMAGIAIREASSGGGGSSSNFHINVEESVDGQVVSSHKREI
UniProt P31947: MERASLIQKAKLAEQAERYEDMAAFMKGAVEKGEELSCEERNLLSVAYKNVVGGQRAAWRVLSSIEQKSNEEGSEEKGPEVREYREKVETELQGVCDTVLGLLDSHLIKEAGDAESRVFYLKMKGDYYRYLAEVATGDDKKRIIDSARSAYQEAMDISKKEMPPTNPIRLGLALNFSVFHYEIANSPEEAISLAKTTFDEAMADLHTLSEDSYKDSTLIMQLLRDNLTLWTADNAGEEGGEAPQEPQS

Biological target: EGFP-K15 SCRAPS A351C (human) (UniProt P19012)
Assay: co-IP; GFP-Trap Magnetic Agarose (25 μl beads) on 600 μg lysate of HeLa cells cotransfected with untagged K5 and the EGFP-tagged keratin; lysis in 10 mM Tris/Cl pH 7.5, 150 mM NaCl, 0.5 mM EDTA, 0.5% Nonidet P-40 Substitute (detergent-soluble pool); 4°C, 1 h; western blot for endogenous 14-3-3σ; 14-3-3σ signal normalized to GFP

- binding: binds
Substance: 14-3-3σ (stratifin) (from UniProt P31947 1-248)
